# Measurements taken from patent publication US7691965B2, “Helical synthetic peptides that stimulate cellular cholesterol efflux” (The Regents of the University of California, priority 2002, dated 2010).
# Sequences of proteins named here, by UniProt entry; tags and fusion partners are left off. A change or cut given only in a name is not applied to a line headed by its entry.
# UniProt P41233: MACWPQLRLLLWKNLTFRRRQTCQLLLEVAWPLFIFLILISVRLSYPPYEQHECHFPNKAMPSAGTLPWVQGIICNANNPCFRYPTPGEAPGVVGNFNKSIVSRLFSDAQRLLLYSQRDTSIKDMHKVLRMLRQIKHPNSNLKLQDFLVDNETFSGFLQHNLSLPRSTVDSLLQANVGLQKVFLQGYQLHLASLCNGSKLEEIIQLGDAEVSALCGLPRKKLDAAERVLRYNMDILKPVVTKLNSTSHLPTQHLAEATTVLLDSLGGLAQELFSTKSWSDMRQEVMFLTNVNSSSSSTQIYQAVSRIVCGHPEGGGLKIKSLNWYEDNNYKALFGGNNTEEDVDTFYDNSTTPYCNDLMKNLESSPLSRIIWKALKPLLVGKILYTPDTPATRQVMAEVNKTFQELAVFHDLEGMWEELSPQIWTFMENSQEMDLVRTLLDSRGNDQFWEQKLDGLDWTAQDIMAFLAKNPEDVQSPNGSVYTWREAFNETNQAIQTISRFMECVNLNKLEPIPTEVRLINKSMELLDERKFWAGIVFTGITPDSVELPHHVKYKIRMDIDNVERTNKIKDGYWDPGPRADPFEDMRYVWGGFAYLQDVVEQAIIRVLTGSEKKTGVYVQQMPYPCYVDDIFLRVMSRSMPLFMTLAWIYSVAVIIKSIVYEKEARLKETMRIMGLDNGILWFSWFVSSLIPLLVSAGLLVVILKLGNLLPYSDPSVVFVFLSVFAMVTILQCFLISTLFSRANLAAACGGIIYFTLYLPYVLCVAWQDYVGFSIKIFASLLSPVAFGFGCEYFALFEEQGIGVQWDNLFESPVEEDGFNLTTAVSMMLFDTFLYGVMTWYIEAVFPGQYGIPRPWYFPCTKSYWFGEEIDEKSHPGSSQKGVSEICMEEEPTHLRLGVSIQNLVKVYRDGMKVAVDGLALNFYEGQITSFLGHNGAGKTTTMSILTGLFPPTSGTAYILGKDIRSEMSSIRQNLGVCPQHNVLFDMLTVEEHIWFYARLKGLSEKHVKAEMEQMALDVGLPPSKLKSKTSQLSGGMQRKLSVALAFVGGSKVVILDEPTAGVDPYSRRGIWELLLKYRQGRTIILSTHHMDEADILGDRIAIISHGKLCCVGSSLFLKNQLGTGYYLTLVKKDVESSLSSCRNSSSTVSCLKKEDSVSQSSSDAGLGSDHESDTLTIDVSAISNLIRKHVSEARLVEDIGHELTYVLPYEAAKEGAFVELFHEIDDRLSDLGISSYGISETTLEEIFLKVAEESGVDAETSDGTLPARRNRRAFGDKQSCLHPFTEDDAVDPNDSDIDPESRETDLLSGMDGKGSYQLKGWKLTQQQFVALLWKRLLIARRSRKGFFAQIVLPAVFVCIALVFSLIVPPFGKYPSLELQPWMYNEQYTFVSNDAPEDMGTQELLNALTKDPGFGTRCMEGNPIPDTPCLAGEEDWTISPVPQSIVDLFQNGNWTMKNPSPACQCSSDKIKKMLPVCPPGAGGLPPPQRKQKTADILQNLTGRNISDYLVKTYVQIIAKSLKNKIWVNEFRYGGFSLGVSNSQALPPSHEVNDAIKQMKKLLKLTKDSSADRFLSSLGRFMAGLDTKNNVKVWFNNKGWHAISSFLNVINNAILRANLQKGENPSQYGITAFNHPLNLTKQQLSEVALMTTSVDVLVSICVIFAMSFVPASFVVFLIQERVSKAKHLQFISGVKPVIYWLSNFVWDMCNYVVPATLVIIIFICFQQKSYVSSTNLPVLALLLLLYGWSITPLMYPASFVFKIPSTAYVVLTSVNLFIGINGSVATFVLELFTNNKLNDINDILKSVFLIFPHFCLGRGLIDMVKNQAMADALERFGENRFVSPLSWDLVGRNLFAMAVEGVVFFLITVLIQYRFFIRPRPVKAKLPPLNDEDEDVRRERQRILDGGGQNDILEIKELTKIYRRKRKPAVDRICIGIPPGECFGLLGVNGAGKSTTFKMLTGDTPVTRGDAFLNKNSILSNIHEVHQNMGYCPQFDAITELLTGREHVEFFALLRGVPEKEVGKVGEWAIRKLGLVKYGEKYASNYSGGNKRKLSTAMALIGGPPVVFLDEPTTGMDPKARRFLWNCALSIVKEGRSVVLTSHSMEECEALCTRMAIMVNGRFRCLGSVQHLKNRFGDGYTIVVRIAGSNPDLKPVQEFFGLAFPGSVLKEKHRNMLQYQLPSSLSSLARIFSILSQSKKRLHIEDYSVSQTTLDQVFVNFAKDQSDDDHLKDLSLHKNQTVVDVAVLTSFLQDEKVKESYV
# Not every detail of the peptide structures is certain; ends, links or a residue may be inferred. Where a SMILES comes first, the peptide text is derived from it.
# Target: ABCA1 (Mus musculus, UniProt P41233)
# Assay: Cellular cholesterol efflux from [3H]cholesterol-labeled J774 macrophages with and without cAMP analog
# Format: cell-based
# Set-up: endogenous in cells; host or cells: J774 macrophages treated with a cAMP analog (CPT-cAMP or 8-bromo-cAMP)
# Details: lipid-free acceptor, J774 macrophages with vs without cAMP analog
# Text: Suitable cholesterol efflux assays are described in, e.g., Bielicki, J. K and Oda, M. N., Biochemistry, 41:2089-2096 (2002); Jia, Z. et al., Biochem. Biophys. Res. Common., 297:206-213 (2002). In some embodiments, a polypeptide known to mediate cholesterol efflux (e.g., helix 9/10 of Apo A-I) is used to screen for additional mediators of cholesterol efflux in a cell based assay. For example, cell lines in which cholesterol efflux can be enhanced using a cAMP analog that up-regulates ABCA1 protein expression (e.g., J774 macrophages) can conveniently be used to assess the ability of an Apo A-I, Apo A-II, Apo A-IV, Apo E, Apo C-I, Apo C-II, Apo C-III, or Serum Amyloid A peptide to mediate cholesterol efflux. The cells are incubated with labeled cholesterol (e.g., [^3H]cholesterol) under conditions appropriate for cholesterol uptake by the cells. cAMP or cAMP analogs (e.g., CPT-cAMP) is incubated with the cells for a suitable time before the initiation of cellular cholesterol efflux, i.e., prior to contacting the cells with helix 9/10 of Apo A-I or the test compound. Measurement of labeled cholesterol appearing in the medium is used to determine the cholesterol efflux mediating activity of the test compound.
# Cellular Cholesterol Efflux Protocol—J774 macrophages were used to assess the cholesterol efflux properties of synthetic amphipathic α-helical peptides (Bielicki, J. K and Oda, M. N., Biochemistry, 41:2089-2096 (2002); Jia, Z. et al., Biochem. Biophys. Res. Common., 297:206-213 (2002)). This cell line was chosen because cholesterol efflux can be enhanced using a cAMP analog that up-regulates ABCA1 protein expression. The cells were seeded onto 24-well culture plates and labeled for 48 h with [^3H]cholesterol in RPMI 1640 supplemented with 1% fetal bovine serum. […] Efflux results were expressed as a percentage of the initial cellular [^3H] appearing in the medium as a function of time subtracting the background efflux obtained using serum-free medium alone.
row,SMILES,ABCA1-dependent cholesterol efflux (result in words)
1,CC(=O)N1CCC[C@H]1C(=O)N[C@H](C(=O)N[C@@H](CC(C)C)C(=O)N[C@@H](CCC(=O)O)C(=O)N[C@@H](CO)C(=O)N[C@@H](Cc1ccccc1)C(=O)N[C@@H](CCCCN)C(=O)N[C@H](C(=O)N[C@@H](CO)C(=O)N[C@@H](Cc1ccccc1)C(=O)N[C@@H](CC(C)C)C(=O)N[C@@H](CO)C(=O)N[C@@H](C)C(=O)N[C@@H](CC(C)C)C(=O)N[C@@H](CCC(=O)O)C(=O)N[C@@H](CCC(=O)O)C(=O)N[C@@H](Cc1ccc(O)cc1)C(=O)N[C@@H](CCCCN)C(=O)N[C@H](C(=O)N[C@@H](CCCCN)C(=O)N[C@@H](CC(C)C)C(=O)N[C@@H](CCC(=O)O)C(=O)N[C@@H](CO)C(=O)N[C@@H](C)C(=O)N[C@@H](CC(C)C)C(=O)N[C@@H](CC(N)=O)C(N)=O)[C@@H](C)O)C(C)C)C(C)C [SEQ ID NO: 2] (Ac-PVLESFKVSFLSALEEYKTKLESALN-NH2; N-terminus and C-terminus assumed),comparable cholesterol efflux activity to the native Apo AI 9/10 (33mer) peptide
2,CC(=O)N1CCC[C@H]1C(=O)N[C@@H](C)C(=O)N[C@@H](CC(C)C)C(=O)N[C@@H](CCC(=O)O)C(=O)N[C@@H](CC(=O)O)C(=O)N[C@@H](CC(C)C)C(=O)N[C@@H](CCCNC(=N)N)C(=O)N[C@@H](CCC(N)=O)C(=O)NCC(=O)N[C@@H](CC(C)C)C(=O)N[C@@H](CC(C)C)C(=O)N1CCC[C@H]1C(=O)N[C@H](C(=O)N[C@@H](CC(C)C)C(=O)N[C@@H](CCC(=O)O)C(=O)N[C@@H](CO)C(=O)N[C@@H](Cc1ccccc1)C(=O)N[C@@H](CS)C(=O)N[C@H](C(=O)N[C@@H](CCCCN)C(=O)N[C@@H](Cc1ccccc1)C(=O)N[C@@H](CC(C)C)C(=O)N[C@@H](CO)C(=O)N[C@@H](C)C(=O)N[C@@H](CC(C)C)C(=O)N[C@@H](CCC(=O)O)C(=O)N[C@@H](CCC(=O)O)C(=O)N[C@@H](Cc1ccc(O)cc1)C(=O)N[C@H](C(=O)N[C@@H](CCCCN)C(=O)N[C@@H](CCCCN)C(=O)N[C@@H](CC(C)C)C(=O)N[C@@H](CC(N)=O)C(N)=O)[C@@H](C)O)C(C)C)C(C)C [SEQ ID NO: 1] (Ac-PALEDLRQGLLPVLESFCVKFLSALEEYTKKLN-NH2; N-terminus and C-terminus assumed),does not interfere with the ability of the 9/10 peptide to stimulate ABCA1-dependent cholesterol
3,CC[C@H](C)[C@H](NC(=O)[C@H](CCC(N)=O)NC(=O)[C@H](CCC(N)=O)NC(=O)[C@H](Cc1ccccc1)NC(=O)[C@H](Cc1c[nH]c2ccccc12)NC(=O)[C@H](CCC(=O)O)NC(=O)[C@H](CCC(=O)O)NC(=O)[C@H](CC(C)C)NC(=O)[C@H](CCCCN)NC(=O)[C@H](C)NC(=O)[C@H](CCCNC(=N)N)NC(=O)[C@@H](NC(=O)[C@H](CCC(=O)O)NC(C)=O)C(C)C)C(=O)N[C@@H](CCCNC(=N)N)C(=O)N[C@@H](CC(C)C)C(=O)N[C@@H](CCC(N)=O)C(=O)N[C@@H](C)C(=O)N[C@@H](CCC(=O)O)C(=O)N[C@@H](CCC(=O)O)C(=O)N[C@@H](Cc1ccccc1)C(=O)N[C@@H](CCC(N)=O)C(=O)N[C@@H](C)C(=O)N[C@@H](CCCNC(=N)N)C(=O)N[C@@H](CC(C)C)C(=O)N[C@@H](CCCCN)C(=O)N[C@@H](CO)C(N)=O [SEQ ID NO: 9] (Ac-EVRAKLEEWFQQIRLQAEEFQARLKS-NH2; N-terminus and C-terminus assumed),can mediate ABCA1-dependent cholesterol efflux
